Assay results taken from PMC2444027.
These are yes or no findings as the source states them, for the method shown. In cells and extracts the contact can be indirect. For part of these data: A result given as binding can be weak or reduced; the word gives no strength. Values belong to the binder of their own block, whether it stands above or below them.

Sequences of proteins named here, by UniProt entry; tags and fusion partners are left off. A change or cut given only in a name is not applied to a line headed by its entry.
UniProt Q9FN02: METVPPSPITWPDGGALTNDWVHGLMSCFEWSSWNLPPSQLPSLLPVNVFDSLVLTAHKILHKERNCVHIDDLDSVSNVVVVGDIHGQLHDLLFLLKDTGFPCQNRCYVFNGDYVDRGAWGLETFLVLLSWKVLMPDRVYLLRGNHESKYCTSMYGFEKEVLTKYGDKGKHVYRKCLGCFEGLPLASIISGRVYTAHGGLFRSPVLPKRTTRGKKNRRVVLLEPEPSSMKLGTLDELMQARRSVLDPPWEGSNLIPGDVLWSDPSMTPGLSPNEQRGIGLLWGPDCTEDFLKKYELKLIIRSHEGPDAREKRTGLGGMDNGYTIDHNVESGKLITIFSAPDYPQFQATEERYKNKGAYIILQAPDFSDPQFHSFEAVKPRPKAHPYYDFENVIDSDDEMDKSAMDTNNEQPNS

Columns and labels:
[1] = molecular target: AtPP7-GFP protein fusion (Arabidopsis) (UniProt Q9FN02); assay: co-IP; extracts of 4-day dark-grown AtPP7-GFP seedlings after a 5 min red light pulse (10 umol m^-2 s^-1, 22°C); anti-GFP agarose beads, 5 h at 4°C in darkness; Hepes 50 mM pH 7.9, 150 mM NaCl, 0.5% Triton X-100; blots with specific antibodies
[2] = molecular target: AtPP7-GFP protein fusion (Arabidopsis) (UniProt Q9FN02); assay: condition: only dark-grown seedlings without the red light pulse; co-IP; extracts of 4-day dark-grown AtPP7-GFP seedlings without red pulse (dark control); anti-GFP agarose beads, 5 h at 4°C in darkness; Hepes 50 mM pH 7.9, 150 mM NaCl, 0.5% Triton X-100; blots with specific antibodies

binding [1]: binds
B1: phytochrome A (phyA), endogenous (receptor, UniProt P14712 1-1122)
chain: MSGSRPTQSSEGSRRSRHSARIIAQTTVDAKLHADFEESGSSFDYSTSVRVTGPVVENQPPRSDKVTTTYLHHIQKGKLIQPFGCLLALDEKTFKVIAYSENASELLTMASHAVPSVGEHPVLGIGTDIRSLFTAPSASALQKALGFGDVSLLNPILVHCRTSAKPFYAIIHRVTGSIIIDFEPVKPYEVPMTAAGALQSYKLAAKAITRLQSLPSGSMERLCDTMVQEVFELTGYDRVMAYKFHEDDHGEVVSEVTKPGLEPYLGLHYPATDIPQAARFLFMKNKVRMIVDCNAKHARVLQDEKLSFDLTLCGSTLRAPHSCHLQYMANMDSIASLVMAVVVNEEDGEGDAPDATTQPQKRKRLWGLVVCHNTTPRFVPFPLRYACEFLAQVFAIHVNKEVELDNQMVEKNILRTQTLLCDMLMRDAPLGIVSQSPNIMDLVKCDGAALLYKDKIWKLGTTPSEFHLQEIASWLCEYHMDSTGLSTDSLHDAGFPRALSLGDSVCGMAAVRISSKDMIFWFRSHTAGEVRWGGAKHDPDDRDDARRMHPRSSFKAFLEVVKTRSLPWKDYEMDAIHSLQLILRNAFKDSETTDVNTKVIYSKLNDLKIDGIQELEAVTSEMVRLIETATVPILAVDSDGLVNGWNTKIAELTGLSVDEAIGKHFLTLVEDSSVEIVKRMLENALEGTEEQNVQFEIKTHLSRADAGPISLVVNACASRDLHENVVGVCFVAHDLTGQKTVMDKFTRIEGDYKAIIQNPNPLIPPIFGTDEFGWCTEWNPAMSKLTGLKREEVIDKMLLGEVFGTQKSCCRLKNQEAFVNLGIVLNNAVTSQDPEKVSFAFFTRGGKYVECLLCVSKKLDREGVVTGVFCFLQLASHELQQALHVQRLAERTAVKRLKALAYIKRQIRNPLSGIMFTRKMIEGTELGPEQRRILQTSALCQKQLSKILDDSDLESIIEGCLDLEMKEFTLNEVLTASTSQVMMKSNGKSVRITNETGEEVMSDTLYGDSIRLQQVLADFMLMAVNFTPSGGQLTVSASLRKDQLGRSVHLANLEIRLTHTGAGIPEFLLNQMFGTEEDVSEEGLSLMVSRKLVKLMNGDVQYLRQAGKSSFIITAELAAANK

binding [1]: binds
binding [2]: no binding
B2: nucleotide diphosphate kinase 2 (NDPK2), endogenous (protein, UniProt O64903 63-231)
chain: ASSSAESGIFLPHLVASMEDVEETYIMVKPDGIQRGLVGEIISRFEKKGFKLIGLKMFQCPKELAEEHYKDLSAKSFFPNLIEYITSGPVVCMAWEGVGVVASARKLIGKTDPLQAEPGTIRGDLAVQTGRNIVHGSDSPENGKREIGLWFKEGELCKWDSALATWLRE
